Data as given in PubChem BioAssay AID652243 (Drosophila RNAi Screening Center, 2013)
The screen tested about 24,000 reagents; shown is an unselected part of those with a known target gene and a result. Over the whole deposit, 246 (1%) were called active. 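Plates not normalised; calls are printed but the firefly/Renilla ratio behind them is not deposited; fold cut for lowering reported inconsistently.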 Raw values are not corrected between plates. Reagents against one gene are numbered here. Names joined by + are all predicted targets of the reagent. The record does not give: the amount of reagent.

- Test: 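Knock-downs that decrease or increase androgen receptor reporter signal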 (primary screen)
- Cells: Drosophila S2R+ cells
- Reagents: long dsRNA against Drosophila genes
- Timing: 72 h (48 h, then 24 h hormone)
- Treatment: synthetic androgen R1881 at 10 nM for 24 h
- Detection: 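Firefly light from an androgen-responsive reporter and Renilla control light per well, raw and unnormalised, for each of two replicates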
- Reading the numbers: firefly reporter light: higher = more light from androgen-responsive reporter; Renilla control light: higher = more constitutive control signal (cell number, transfection)
- Active means: 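Across duplicate plates, a knock-down whose log firefly/Renilla ratio shifted a set fold down or up from the GFP/LacZ control mean was a hit; the downward cut appears as both 1.5 and 3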
- Calls: active = hit: reporter lowered or raised; inactive = no hit

The first 4 entries, ahead of the listing:
gene	reagent no.	firefly reporter light, replicate 1	firefly reporter light, replicate 2	Renilla control light, replicate 1	Renilla control light, replicate 2	activity call
CG34164	1	2.46e5	1.57e5	1.21e6	1.29e6	inactive
Men-b	1	2.57e5	1.88e5	1.89e6	1.76e6	inactive
CG32568	1	7.60e5	4.94e5	3.19e6	2.65e6	inactive
CG32568	2					inactive

Main list, from the start:
gene	reagent no.	firefly reporter light, replicate 1	firefly reporter light, replicate 2	Renilla control light, replicate 1	Renilla control light, replicate 2	activity call
CG34164	1	2.46e5	1.57e5	1.21e6	1.29e6	inactive
Men-b	1	2.57e5	1.88e5	1.89e6	1.76e6	inactive
CG32568	1	7.60e5	4.94e5	3.19e6	2.65e6	inactive
CG32568	2					inactive
beta-Spec	1	5.11e5	5.49e5	3.51e6	3.39e6	inactive
Cpn	1	7252	14617	2.60e5	2.52e5	inactive
Cpn	2	4.25e5	3.29e5	3.75e5	4.87e5	inactive
Mid1	1	4.54e5	4.40e5	2.29e6	2.88e6	inactive
Mid1	2	57342	51697	1.30e6	1.43e6	inactive
Mid1	3	3.95e5	5.26e5	5.81e5	6.75e5	inactive
Mid1	4	3.72e5	9.09e5	1.24e6	2.48e6	inactive
Mid1	5	8.02e5	7.02e5	9.08e5	7.32e5	inactive
Mid1	6	3.43e5	3.72e5	1.36e6	1.10e6	inactive
CG14212	1	1.25e5	1.04e5	3.61e5	2.79e5	inactive
CG14212	2	5.05e5	5.04e5	7.85e5	7.68e5	inactive
CG4766	1	3.62e5	4.71e5	3.05e6	3.84e6	inactive
zetaTry	1	3.01e5	1.57e5	1.77e6	1.07e6	inactive
CG43980	1	2.13e5	1.57e5	5.70e5	6.49e5	inactive
CG43980	2	2.80e5	2.32e5	2.67e6	1.82e6	inactive
CG43980	3	2.53e5	8.79e5	8.14e5	1.35e6	inactive
CG43980	4	96097	1.13e5	1.41e5	81503	inactive
CG43980	5	5.74e5	5.02e5	1.43e6	1.57e6	inactive
Nep3	1	1.76e5	1.98e5	3.13e5	2.60e5	inactive
Nep3	2	5.29e5	6.60e5	1.11e6	1.11e6	inactive
Madm	1	60988	98682	1.77e6	2.00e6	inactive
Madm	2	3.33e5	5.11e5	7.08e5	7.86e5	inactive
Madm	3					inactive
wisp	1	6.24e5	8.00e5	1.17e6	1.34e6	inactive
wisp	2	3.65e5	2.77e5	7.89e5	6.44e5	inactive
CG33458	1	8.59e5	8.31e5	2.04e6	2.68e6	inactive
cact	1	1.01e6	1.16e6	1.13e6	1.71e6	inactive
cact	2	4.68e5	6.93e5	8.99e5	1.31e6	inactive
tre-3 (retired record)	1	8.99e5	5.37e5	2.28e6	1.90e6	inactive
CG17068	1	66638	45196	3.07e5	3.94e5	inactive
CG1105	1	39276	29797	3.84e5	3.49e5	inactive
CG1105	2	6.54e5	4.50e5	8.34e5	9.41e5	inactive
Btk	1	2.51e5	81016	2.21e6	1.18e6	inactive
Btk	2	7.01e5	7.45e5	3.63e6	2.78e6	active
Btk	3	4.88e5	9.26e5	8.10e5	1.80e6	inactive
Btk	4					inactive
Mur29B	1	1.90e5	1.54e5	5.26e5	4.75e5	inactive
Mur29B	2	4.36e5	2.90e5	2.26e6	2.02e6	inactive
CG14325	1	88985	1.14e5	1.01e6	1.37e6	inactive
CG42272	1	2.35e5	1.88e5	6.49e5	5.17e5	inactive
CG42272	2	10322	28186	30108	42420	inactive
CG42272	3	6.98e5	6.43e5	6.65e5	7.19e5	inactive
CG42272	4	1.97e5	1.93e5	3.87e5	7.77e5	inactive
CG30196	1	4.25e5	3.86e5	2.47e6	2.11e6	inactive
mod(mdg4)	1					inactive
mod(mdg4)	2					inactive
mod(mdg4)	3	80337	1.18e5	1.72e5	1.55e5	inactive
mod(mdg4)	4	2.72e5	3.03e5	2.89e6	3.11e6	inactive
mod(mdg4)	5	69352	94193	7.85e5	8.70e5	inactive
Amy-d + Amy-p	1	4.32e5	3.17e5	4.05e5	3.84e5	inactive
Amy-d + Amy-p	2	6.23e5	9.84e5	6.49e5	6.66e5	inactive
Ir94e	1	3.82e5	6.56e5	2.55e6	3.72e6	inactive
Pbp45	1	1.95e5	2.61e5	2.23e6	3.55e6	inactive
CG7631	1	1.59e5	2.38e5	1.83e6	2.33e6	inactive
